These results are taken from publication PMC11117474.

No constants are given. Whether binding was seen depends on the method and setting. In cells and extracts the contact can be indirect. Some binding calls cover weakened binding; strength is not graded here.

The target in the assay is T1, RYBP (RING1A and YY1 binding protein), endogenous (human (endogenous in MRC-5 and MDA-MB-231)) (UniProt Q8N488).
T1 sequence: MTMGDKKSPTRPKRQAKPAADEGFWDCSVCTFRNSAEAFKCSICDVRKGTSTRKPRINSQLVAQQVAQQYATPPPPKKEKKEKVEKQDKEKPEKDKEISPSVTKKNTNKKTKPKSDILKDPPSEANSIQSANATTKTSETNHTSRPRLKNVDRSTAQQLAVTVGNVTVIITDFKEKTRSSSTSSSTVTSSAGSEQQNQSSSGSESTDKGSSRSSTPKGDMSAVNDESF
In words: proximity ligation; Duolink in situ PLA on fixed, permeabilised MRC-5 and MDA-MB-231 cells with anti-PKP1 (mouse) and anti-RYBP (rabbit) primary antibodies; confocal microscopy; endogenous proteins.

B1: Plakophilin 1 (PKP1), endogenous (protein, UniProt Q13835 1-747)
chain: MNHSPLKTALAYECFQDQDNSTLALPSDQKMKTGTSGRQRVQEQVMMTVKRQKSKSSQSSTLSHSNRGSMYDGLADNYNYGTTSRSSYYSKFQAGNGSWGYPIYNGTLKREPDNRRFSSYSQMENWSRHYPRGSCNTTGAGSDICFMQKIKASRSEPDLYCDPRGTLRKGTLGSKGQKTTQNRYSFYSTCSGQKAIKKCPVRPPSCASKQDPVYIPPISCNKDLSFGHSRASSKICSEDIECSGLTIPKAVQYLSSQDEKYQAIGAYYIQHTCFQDESAKQQVYQLGGICKLVDLLRSPNQNVQQAAAGALRNLVFRSTTNKLETRRQNGIREAVSLLRRTGNAEIQKQLTGLLWNLSSTDELKEELIADALPVLADRVIIPFSGWCDGNSNMSREVVDPEVFFNATGCLRKRLGMRELLALVPQRATSSRVNLSSADAGRQTMRNYSGLIDSLMAYVQNCVAASRCDDKSVENCMCVLHNLSYRLDAEVPTRYRQLEYNARNAYTEKSSTGCFSNKSDKMMNNNYDCPLPEEETNPKGSGWLYHSDAIRTYLNLMGKSKKDATLEACAGALQNLTASKGLMSSGMSQLIGLKEKGLPQIARLLQSGNSDVVRSGASLLSNMSRHPLLHRVMGNQVFPEVTRLLTSHTGNTSNSEDILSSACYTVRNLMASQPQLAKQYFSSSMLNNIINLCRSSASPKAAEAARLLLSDMWSSKELQGVLRQQGFDRNMLGTLAGANSLRNFTSRF
Turning to B1, the binding result is listed as “binds”.
